Reference: US12708673B2, “Methods and compositions related to peptides and proteins with c-terminal elements” (Sanford Burnham Prebys Medical Discovery Institute, priority 2008, dated 2026)
For at least one compound, name, drawing or mass did not settle the structure.

Test system: PPC-1 cells
Assay: T7 phage internalization into PPC-1 (PPC1) cells at 37° C. (acid wash and titration, or anti-T7 staining and confocal imaging)
Assay type: cell-based, human
Conditions: 90 minutes at 37° C.
Description: FIG. 2A: Binding of T7 phage to prostate cancer cells depends on the display of a C-terminal arginine on the phage particles. PPC1 cells were incubated with T7 bacteriophage displaying derivatives of the G7 (upper graph) or RPARPAR peptide (SEQ ID NO: 2) (lower graph) at 4° C., and the bound phage was quantified by plaque assay. Binding is expressed in fold over of the non-binding G7 control phage. FIG. 2B: Phage displaying C-terminal arginine is internalized into cultured PPC1 cells (arrow, nuclear internalization; arrowhead, cytoplasmic internalization). A panel of T7 phage clones were incubated at 37° C. with PPC1 cells grown on collagen-coated coverslips, stained with anti T7 antibody and imaged by confocal microscopy.
Phage display. For in vivo phage display, mice were injected intravenously with 10^10 plaque-forming units (pfu) of T7 phage followed by perfusion of the circulatory system and determination of the bound phage in target organs by titration. For cell binding studies on cultured cells (in vitro display) and organ-derived cell suspensions (ex vivo display), the cells were incubated with 10^9 pfu of phage at 4° C., washed, lysed, and quantified by titration. Incubation at 37° C. followed by low pH wash (glycine-HCl, pH 2.5) was used to assess the amount of internalized phage. […]

## COC[C@H]1OC(=O)c2coc3c2[C@@]1(C)C1=C(C3=O)[C@@H]2CCC(=O)[C@@]2(C)C[C@H]1OC(C)=O [wortmannin, reference compound]
  Effect of endocytosis inhibitor on uptake of CendR peptides (RPARPAR phage internalization): None of these inhibitors affected the uptake
